# The full ranking holds about 33,000 sequences; the median of “E-score (-0.5 to 0.5)” is about -0.0014, and the highest 2% start at about 0.25. The list shows a part of the results.
# Biological target: T1, Cad1 (UniProt P24813)
# T1 sequence: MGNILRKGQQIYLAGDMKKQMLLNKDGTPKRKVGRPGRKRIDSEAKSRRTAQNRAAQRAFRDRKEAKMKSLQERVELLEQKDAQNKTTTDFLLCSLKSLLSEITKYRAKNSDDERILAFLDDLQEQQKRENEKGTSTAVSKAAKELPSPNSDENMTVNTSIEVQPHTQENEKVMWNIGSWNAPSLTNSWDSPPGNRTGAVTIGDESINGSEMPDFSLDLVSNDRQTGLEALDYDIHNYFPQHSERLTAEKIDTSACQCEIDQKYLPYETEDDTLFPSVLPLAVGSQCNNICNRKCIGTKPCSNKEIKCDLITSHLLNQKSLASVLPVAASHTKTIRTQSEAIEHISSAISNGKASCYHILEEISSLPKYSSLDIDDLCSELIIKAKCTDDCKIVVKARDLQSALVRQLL
# Experiment: PBM E-score (8-mer binding enrichment) (E-score (-0.5 to 0.5)); higher = stronger / more preferred TF binding
# Details: protein concentration: 100 nM; construct: GST-full length
# Procedure, shortened: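 Masliner-normalised scans of fluorescent anti-GST signal were the basis for scoring. That signal came from GST-tagged yeast transcription factors applied at about 100-200 nM to double-stranded universal all-10-mer Agilent arrays on fresh or once-stripped slides. Each ungapped eight-base word, pooled with its reverse complement, received an E-score from the Universal PBM Analysis Suite.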
row,Sequence,PBM E-score
1,GTCTGGTA,0.104
2,ATTGACAA,0.0764
3,TATACCGA,0.114
4,CCAGCAAA,0.108
5,AAATTTGC,0.182
6,AAATACTA,0.0416
7,CACGTAAG,-0.0423
8,CCGCTGTC,0.00182
9,AAGCCTGC,-0.05
10,CGAGTCCC,-0.108
11,ACATTGTC,0.292
12,AAACCCAC,0.131
13,ACCTAGCG,0.04
14,AGGGGCGG,-0.0952
15,ATAGCTGG,-0.122
16,CAATAGGG,-0.0436
17,CACGTGCG,-0.12
18,CACCTCCA,-0.00736
19,CTTGTTGC,-0.0146
20,ATTAGCCG,0.0767
21,TAACAACA,0.161
22,ACCATAGC,-0.067

row,Sequence,PBM E-score
1,AAAAGCAC,0.0589
2,ACACGTTA,0.017
3,AAAAATTC,0.131
4,ACGTATAT,0.0978
5,CCCGAAAC,-0.0765
6,TGCCGACA,0.107
7,TACAAGCA,0.0886
8,CCATTGTA,0.0618
9,AATGCACT,0.0352
10,TGATGCAA,0.0945
11,GACAAACA,0.176
12,ATCTGGTC,0.0734
13,CATCCCCG,-0.0741
14,CTGAAGGC,-0.237
15,TATTTAGA,0.119
16,GTCTAGAA,-0.0373
17,CAAAATTC,0.2
18,ACCCGGAA,0.138
19,GAAAGTCA,0.0255
20,AAAGCCCA,0.072
21,AAGAATTA,0.113
22,ATGATAGC,0.0595

row,Sequence,PBM E-score
1,TCACGAGA,-0.102
2,ACTGAAGC,0.00638
3,CACTCCTG,-0.123
4,ACAATAAT,0.232
5,CGACCTCG,0.0954
6,AGCCGCAA,-0.175
7,CCGCTTTC,-0.129
8,GCACCAGA,-0.163
9,ATAGTCAG,0.0123
10,CAAACGCG,0.181
11,GGGCTTCA,-0.138
12,ATGCAAAG,-0.018
13,GCGTTAGA,0.0542
14,AATTAACG,0.119
15,ATTACCTC,0.0779
16,AACGCGAC,0.0146
17,ACAGGATC,-0.24
18,ACGTTTAG,0.0419
19,GCCAATTA,-0.0568
20,CGTGTGTC,0.0456
21,ATGCTTCG,0.0307
22,CGGGACTA,-0.22

# Some of the entries above, set out differently.
row | Sequence | PBM E-score
6 | AGCCGCAA | -0.175
7 | CCGCTTTC | -0.129
8 | GCACCAGA | -0.163

# Additional entries follow.

row,Sequence,PBM E-score
1,GAAACGAA,0.181
2,AAAATATG,0.211
3,CTCACGTC,0.0213
4,CGAAGGGC,0.0641
5,CCCAATTA,0.128
6,CCACATGA,-0.0563
7,GAAGTGAC,0.0197
8,AGGAAACT,-0.118
9,ACCCTATA,-0.129
10,ATTCCATC,0.125
11,GGATGCGA,-0.128
12,CTTATCAC,0.0836
13,GGCCTTAC,-0.166
14,CGGGCGGA,-0.0604
15,AAAGATAA,0.2
16,CAGGACCG,-0.124
17,CTACAGGA,0.0522
18,AAATGATC,-0.133
19,CGGGCTCC,-0.153
20,AGACAGCG,-0.00799

# Source: the supplement of paper PMC3334620
